This passage reports binding results from publication PMC4741580.

Protein sequences, listed by entry. Tags and fused reporters are not part of them. Lines headed by an entry give the natural chain unless they say otherwise; changes in a name come on top.
UniProt P38936: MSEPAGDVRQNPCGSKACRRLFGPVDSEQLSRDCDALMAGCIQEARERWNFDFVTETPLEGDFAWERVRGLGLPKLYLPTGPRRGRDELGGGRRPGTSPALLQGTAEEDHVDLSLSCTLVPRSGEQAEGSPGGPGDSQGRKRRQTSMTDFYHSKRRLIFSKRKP
UniProt Q96LA8: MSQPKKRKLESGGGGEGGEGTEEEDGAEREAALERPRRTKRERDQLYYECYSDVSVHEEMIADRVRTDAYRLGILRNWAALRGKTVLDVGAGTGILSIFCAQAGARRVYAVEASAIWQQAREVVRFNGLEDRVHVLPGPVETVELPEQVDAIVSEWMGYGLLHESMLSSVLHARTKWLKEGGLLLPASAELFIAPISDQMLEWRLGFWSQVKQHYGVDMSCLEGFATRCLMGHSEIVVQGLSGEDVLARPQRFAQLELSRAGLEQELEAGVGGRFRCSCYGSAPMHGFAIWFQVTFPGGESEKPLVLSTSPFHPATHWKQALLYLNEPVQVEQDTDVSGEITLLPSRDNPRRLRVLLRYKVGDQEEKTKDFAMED

No constants are given. Whether binding was seen depends on the method and setting. Binding seen in cells or lysates may run through a third protein. Some binding calls cover weakened binding; strength is not graded here.

For test [1], the target named is exogenous p21 (co-immunoprecipitation with the PRMT6 fragment) (human) (UniProt P38936). As to the kind of experiment: co-IP; transfected 293T cells lysed 48 h after transfection with CelLytic M; whole-cell extract with anti-FLAG M2 or anti-HA agarose beads at 4°C overnight, three washes with PBS, elution with FLAG or HA peptide; western blot. (In general: Immunoblotting shows a protein as a band on a membrane.)

A further test has as its target HA-p21 (human) (UniProt P38936). The description is as above.
Test [2] deals with p21^CDKN1A, endogenous (human (endogenous in 293T)) (UniProt P38936). Briefly: co-IP; endogenous proteins: whole-cell extract with a primary antibody at 4°C overnight, protein A/G agarose beads, three washes with PBS, elution by boiling; western blot.

For the substance “partial PRMT6 protein (aa 1–209) (from UniProt Q96LA8 1-209) (domain or fragment)”, the binding entry in test [1] was “binds”.
For the substance “protein arginine methyltransferase 6 (PRMT6), endogenous (from UniProt Q96LA8 1-375) (enzyme)”, the binding entry (in the test with HA-p21 (human); in test [2]) was “binds” in each case.
